Reference: patent US11510890B2, “Meroterpenoid compounds for use in the prevention and treatment of a neurological disorder” (SOCIETE DES PRODUITS NESTLE S.A., priority 2017, dated 2022)
For at least one compound, name, drawing or mass did not settle the structure.

System: human iPSc derived into astrocyte (iCell astrocytes)
Experiment: Lactate release dose response in human iPSc derived astrocytes
Type: cell-based
Conditions: lactate secretion after 2 hours compound treatment
Procedure: Dose response curves were established for compounds identified in the screen to stimulate lactate secretion. The EC50 values for the stimulation of lactate secretion were determined using primary human IPS cell derived astrocytes.
Differentiated human iPSCs (iCell astrocytes, and iCell cardiomyocytes) were obtained from Cellular Dynamics International (CDI, Madison, Wis., USA). iCell astrocytes were cultured in DMEM supplemented with 10% fetal calf serum and N2 complement. iCell cardiomyocytes were maintained in a medium supplied by CDI. Cell cultures were kept in a humidified atmosphere (5% CO2) at 37° C.
Dose response of compounds on lactate release from human iPSc derived into astrocyte fitted with a log (agonist) vs. response variable slope to extract […] (EC50). Mean±SEM in duplicate.
The toxicity expressed in log IC50 (ATP content after 24 hours compound treatment on human iPSc derived into cardiomyocyte) was compared against the lactate release in log EC50 (lactate secretion after 2 hours compound treatment in human iPSc derived into astrocytes).

Work on `CC(=O)OC(C[C@@]1(C)[C@H](C)CCC(=O)[C@@H]1C)/C(C)=C/Cc1c(O)c(Cl)c(C)c(C=O)c1O` (stereo partly shown) [38965-84-3, Chloronectrin] yielded an EC50 of 0.5 µM.
